At least one compound was matched to its structure with a doubt left.
Legend:
PD-L1 = PD-L1 expression on TAMCs after IFNγ stimulation (RT-qPCR, flow cytometry); assay type: cell-based, C57BL/6 mice; conditions: 25 nM Dina, IFNγ 24 h
Protocol: To detect the PD-L1 expression on TAMCs post treatments, in vitro generated TAMCs (8×10^5 cells/well) were seeded in 24-well plate. After 24 h of culture, cells were subject to different treatments (Dina, αPD-L1/LNP, or αPD-L1-LNP/Dina) at a Dina concentration of 25 nM. Selected groups of cells were exposed to IFNγ (PeproTech) stimulation at 10 ng/ml for 24 h. Cells were collected and washed, followed by qPCR analysis or antibody staining for flow cytometry. The effect of irradiation on PD-L1 expression on TAMCs was similarly assessed 72 h post irradiation.

GL261 glioma cells = test: Annexin V apoptosis assay of GL261 glioma cells; assay type: cell-based, murine; conditions: 24 h post-treatment
GL261 glioma = test: Survival of GL261 glioma-bearing mice, intracranial administration; assay type: in vivo, C57BL/6 mice; conditions: free drug in 20% 2-hydroxypropyl-β-cyclodextran, 2.5 and 5 mg/kg, day 7 and 14

In the case of CCc1cnn2c(NCc3ccc[n+]([O-])c3)cc(N3CCCC[C@H]3CCO)nc12 [Dina, Dinaciclib], the “inhibition of IFNγ-stimulated production of PD-L1 in TAMCs (mRNA and protein)” value (PD-L1) is reported as “remarkably inhibit”, the “sensitivity of GL261 glioma cells compared to TAMCs” value (GL261 glioma cells) is reported as “lower sensitivity” and the “effect on animal survival” value (GL261 glioma) is reported as “did not lead to notable improvement in animal survival”.

Reference: patent publication US12714747B2, “Cytotoxic lipid particles targeted to tumor-associated myeloid cells (TAMCS) and synergized with radiation therapy for treating glioblastoma” (priority 2019, dated 2026)
